Measured values from patent publication US4546096A, “Anticholinergic glucuronides and antiperspirant use thereof” (Repligen Corporation, priority 1984, dated 1985).

System: rabbit eye pupil
Assay: Mydriasis assay (rabbit eye pupil diameter)
Format: in vivo
Conditions: error ± 0.5 mm
Description: The rabbit eye pupil diameter was measured with a clear plastic ruler after exposing the eye to 50 W light at a distance of 6 in. Exposure to light contracts the pupil to approximately 3 mm diameter.
The addition of the compounds to be tested is done in a maximum volume of 150 μl, in 50 mM NaPO4, pH 6.8, 100 mM NaCl. The sample was applied in the upper corner of the eye and was allowed to completely cover the cornea after each addition. Pupil dilation was measured at 3 separate intervals following the procedure outlined above. Buffer controls were run in one eye and the anticholinergic in the other.

What does the source list for `CCN(Cc1ccncc1)C(=O)C(CO)c1ccccc1` (centres unmarked) [Tropicamide]?
Change in Pupil Diameter as a function of time (20 ug applied, in 35 min): 1 mm; Change in Pupil Diameter as a function of time (600 ug applied, in 20 min): 7 mm
